{"source": "patent US20070178577A1", "about": "“Method for effecting the anaerobic biological decomposition of organsiloxanes” (WACKER CHEMIE AG, priority 2004, published 2007)", "test_system": "Sewage sludge from a municipal sewage treatment plant", "assay": "Anaerobic decomposition of dimethylsilanediol (DMSD) by sewage sludge with nitrate as electron acceptor, 1H-NMR", "text": "Sewage sludge from a municipal sewage treatment plant was taken off from running operations under oxygen-free conditions (N2-comprising sample vessels). To separate off interfering substrates, the cell mass was resuspended in 5-times the volume of an oxygen-free buffer (50 mmol/l of potassium phosphate pH 6.8) and centrifuged off. Oxygen-free solutions were produced by degassing the solution and purging with gaseous nitrogen.\nThe operation (resuspending/centrifuging) was repeated 3 times.\nThe washed oxygen-free cell mass was transferred in the absence of oxygen into shake flasks comprising culture medium (10 g of moist cell mass per 100 ml of medium). For control batches, the sewage sludge was autoclaved and inactivated thereby. Culturing proceeded in a minimal medium (SM1) without the addition of complex nutrients. The culture medium was composed as follows:\nAs electron acceptor, in addition, 5 g/l of KNO3 were added. As sole carbon source, finally dimethylsilane-diol (water-soluble; molar weight 92 g/l) was added to the medium. The concentration in the batches was 1 mmol/l. Culturing proceeded under anaerobic conditions on orbital shakers at a temperature of 30° C. The total culture time was 11 days. Samples of the culture medium were taken off at regular intervals and analyzed immediately. The samples were likewise taken off under anaerobic conditions (glove box, N2 atmosphere) directly from the shake flasks.\nAnalysis: In experiments using DMSD as a substrate, the change in concentration of DMSD in the aqueous phase was determined by means of proton magnetic resonance spectroscopy (^1H-NMR). The intense signal at 0.164 ppm is very suitable here. Samples (0.9 ml) from the culture batches were taken off for this directly (via the stopper) from the vessel, admixed with standard (TSP in D2O; TSP=3-(trimethylsilyl)propionic acid-D4 sodium salt) and analyzed in the spectrometer. The DMSD signal can be quantified exactly via the known standard signal).", "data": [{"smiles": "C[Si](C)(O)O", "note": "[DMSD, Dimethylsilanediol]", "values": [{"measurement": "DMSD", "setting": "Batch sewage sludge, anaerobic, 30° C., incubation time 0 days", "value": 90, "unit": "mg/L"}, {"measurement": "DMSD", "setting": "Batch sewage sludge, anaerobic, 30° C., incubation time 2 days", "value": 85, "unit": "mg/L"}, {"measurement": "DMSD", "setting": "Batch sewage sludge, anaerobic, 30° C., incubation time 4 days", "value": 73, "unit": "mg/L"}, {"measurement": "DMSD", "setting": "Batch sewage sludge, anaerobic, 30° C., incubation time 7 days", "value": 64, "unit": "mg/L"}, {"measurement": "DMSD", "setting": "Batch sewage sludge, anaerobic, 30° C., incubation time 11 days", "value": 55, "unit": "mg/L"}, {"measurement": "DMSD", "setting": "Control batch, inactivated (autoclaved) sewage sludge, incubation time 0 days", "value": 87, "unit": "mg/L"}, {"measurement": "DMSD", "setting": "Control batch, inactivated (autoclaved) sewage sludge, incubation time 2 days", "value": 87, "unit": "mg/L"}, {"measurement": "DMSD", "setting": "Control batch, inactivated (autoclaved) sewage sludge, incubation time 4 days", "value": 86, "unit": "mg/L"}, {"measurement": "DMSD", "setting": "Control batch, inactivated (autoclaved) sewage sludge, incubation time 7 days", "value": 83, "unit": "mg/L"}, {"measurement": "DMSD", "setting": "Control batch, inactivated (autoclaved) sewage sludge, incubation time 11 days", "value": 79, "unit": "mg/L"}]}]}
